Earlier results in article PMC10343800, “A Novel LSTM-Based Machine Learning Model for Predicting the Activity of Food Protein-Derived Antihypertensive Peptides” (Molecules, 2023).

Amino acid sequences for entries named in this document (tags omitted). Residues count along the entry.
UniProt P12821, 30-1306 limits assumed: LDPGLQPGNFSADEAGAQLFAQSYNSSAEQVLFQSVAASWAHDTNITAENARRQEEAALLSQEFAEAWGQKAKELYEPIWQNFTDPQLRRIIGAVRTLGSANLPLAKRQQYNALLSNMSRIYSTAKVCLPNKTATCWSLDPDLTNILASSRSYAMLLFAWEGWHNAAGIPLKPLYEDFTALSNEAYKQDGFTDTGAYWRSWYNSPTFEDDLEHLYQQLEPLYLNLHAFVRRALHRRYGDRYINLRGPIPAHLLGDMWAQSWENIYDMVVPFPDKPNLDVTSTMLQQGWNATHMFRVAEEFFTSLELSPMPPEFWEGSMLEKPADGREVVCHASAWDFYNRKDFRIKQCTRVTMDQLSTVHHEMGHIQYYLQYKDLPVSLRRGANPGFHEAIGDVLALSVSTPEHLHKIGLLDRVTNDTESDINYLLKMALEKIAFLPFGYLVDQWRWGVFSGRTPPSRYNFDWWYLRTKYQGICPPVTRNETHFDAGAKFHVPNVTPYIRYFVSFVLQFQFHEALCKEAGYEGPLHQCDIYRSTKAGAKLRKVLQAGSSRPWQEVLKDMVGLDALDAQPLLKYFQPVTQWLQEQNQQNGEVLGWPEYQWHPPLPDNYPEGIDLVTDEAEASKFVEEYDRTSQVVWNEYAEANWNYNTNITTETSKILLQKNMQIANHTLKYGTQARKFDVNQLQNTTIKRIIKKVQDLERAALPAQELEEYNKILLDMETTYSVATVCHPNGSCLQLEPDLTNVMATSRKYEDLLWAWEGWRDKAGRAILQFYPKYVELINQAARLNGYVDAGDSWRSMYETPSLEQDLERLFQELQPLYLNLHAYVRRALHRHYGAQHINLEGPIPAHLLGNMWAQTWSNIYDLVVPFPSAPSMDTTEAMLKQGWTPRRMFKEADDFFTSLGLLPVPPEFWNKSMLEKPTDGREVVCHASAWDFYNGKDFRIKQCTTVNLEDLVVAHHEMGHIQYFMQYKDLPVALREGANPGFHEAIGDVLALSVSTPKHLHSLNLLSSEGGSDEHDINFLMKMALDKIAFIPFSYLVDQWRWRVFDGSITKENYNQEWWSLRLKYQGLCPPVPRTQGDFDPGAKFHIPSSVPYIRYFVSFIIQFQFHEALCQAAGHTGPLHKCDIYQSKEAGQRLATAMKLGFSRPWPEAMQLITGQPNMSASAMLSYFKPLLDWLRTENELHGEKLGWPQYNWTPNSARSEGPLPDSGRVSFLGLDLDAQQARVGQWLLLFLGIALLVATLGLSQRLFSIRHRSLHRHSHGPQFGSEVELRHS

Molecular target: ACE (Homo sapiens, UniProt P12821)
Details: read-out: Reported IC50; in vitro ACE inhibition; cited from earlier work

Row | SMILES | IC50 [nM]
1 | CC[C@H](C)[C@H](N)C(=O)N[C@H](C(=O)N[C@@H](Cc1ccc(O)cc1)C(=O)O)C(C)C | 45800
2 | CC(C)C[C@H](N)C(=O)N[C@@H](CCC(N)=O)C(=O)N1CCC[C@H]1C(=O)O | 1040
3 | CC[C@H](C)[C@H](N)C(=O)N[C@@H](CCC(N)=O)C(=O)N[C@@H](Cc1c[nH]c2ccccc12)C(=O)O | 1560
4 | CC(C)C[C@H](N)C(=O)N[C@@H](CCCCN)C(=O)N[C@@H](Cc1ccc(O)cc1)C(=O)O | 780
5 | NC(=O)C[C@H](N)C(=O)N[C@@H](Cc1ccccc1)C(=O)O | 46300
6 | CC[C@H](C)[C@H](N)C(=O)N[C@@H](CCCNC(=N)N)C(=O)N[C@@H](Cc1c[nH]c2ccccc12)C(=O)O | 610
7 | CC(C)C[C@H](N)C(=O)N[C@@H](C)C(=O)N[C@@H](CCCCN)C(=O)O | 48000

The structures given here were assigned with low confidence; some may be wrong.
